From paper PMC3798694
These are yes or no findings as the source states them, for the method shown. Binding seen in cells or lysates may run through a third protein. Some entries that bind do so weakly or less than the wild type. Tags and fused reporters may be left off the sequences shown. Blank lines part the entries; values can stand above or below the molecule they belong to.

Chains of the proteins cited; added tags and fusions are not shown.
UniProt A0ACD7PP40: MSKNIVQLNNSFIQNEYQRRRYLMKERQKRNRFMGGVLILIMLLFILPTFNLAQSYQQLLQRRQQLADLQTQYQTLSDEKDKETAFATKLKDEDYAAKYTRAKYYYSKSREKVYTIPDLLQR

Molecular target: T1, PBP2x-S (Strep-tagged full length PBP2x of Streptococcus pneumoniae) (S. pneumoniae R6) (UniProt P59676)
T1 sequence: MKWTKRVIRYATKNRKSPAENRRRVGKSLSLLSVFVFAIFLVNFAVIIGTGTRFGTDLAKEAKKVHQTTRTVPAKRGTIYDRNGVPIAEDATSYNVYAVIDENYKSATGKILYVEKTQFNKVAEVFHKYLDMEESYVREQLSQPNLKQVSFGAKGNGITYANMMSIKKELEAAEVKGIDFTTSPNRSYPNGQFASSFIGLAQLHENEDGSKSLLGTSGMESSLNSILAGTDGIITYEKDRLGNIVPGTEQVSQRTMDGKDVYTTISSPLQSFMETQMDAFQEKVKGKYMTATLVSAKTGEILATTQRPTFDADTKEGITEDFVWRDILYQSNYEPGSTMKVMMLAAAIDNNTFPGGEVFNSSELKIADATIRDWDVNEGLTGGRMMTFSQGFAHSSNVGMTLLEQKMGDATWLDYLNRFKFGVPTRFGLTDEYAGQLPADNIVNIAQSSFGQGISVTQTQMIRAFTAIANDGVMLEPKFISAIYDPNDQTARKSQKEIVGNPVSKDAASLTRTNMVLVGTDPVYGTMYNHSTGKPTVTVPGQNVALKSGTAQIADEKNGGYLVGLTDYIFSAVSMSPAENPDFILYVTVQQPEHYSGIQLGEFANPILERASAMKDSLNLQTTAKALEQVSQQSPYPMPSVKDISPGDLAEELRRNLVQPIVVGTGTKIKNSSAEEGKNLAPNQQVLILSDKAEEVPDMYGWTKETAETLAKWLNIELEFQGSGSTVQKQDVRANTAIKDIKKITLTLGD
Experiment: pull-down; Proteins co-expressed in one E. coli strain; DDM-solubilised membranes or Ni-NTA eluate; Strep-tagged protein held on Strep-Tactin (first or second step), eluted with 2.5 mM desthiobiotin; HNG buffer, 0.3 mM DDM; Coomassie SDS-PAGE, Western blot

binding: binds
Molecule: DivIC (untagged full length DivIC of Streptococcus pneumoniae) (from UniProt A0ACD7PP40 1-122)

binding: binds
B1: FtsL (untagged full length FtsL of Streptococcus pneumoniae) (protein, UniProt Q8DR70 1-105)
chain: MAEKMEKTGQILQMQLKRFSRVEKAFYFSIAVTTLIVAISIIFMQTKLLQVQNDLTKINAQIEEKKTELDDAKQEVNELLRAERLKEIANSHDLQLNNENIRIAE
